Measured values published in the supplement of paper PMC7666118.
The list shows a part of the results.

The chains behind the UniProt entries cited, without tags or fusion partners. Where a name states a change or a piece, a line headed by the entry shows the natural chain unless it says otherwise.
UniProt P52272: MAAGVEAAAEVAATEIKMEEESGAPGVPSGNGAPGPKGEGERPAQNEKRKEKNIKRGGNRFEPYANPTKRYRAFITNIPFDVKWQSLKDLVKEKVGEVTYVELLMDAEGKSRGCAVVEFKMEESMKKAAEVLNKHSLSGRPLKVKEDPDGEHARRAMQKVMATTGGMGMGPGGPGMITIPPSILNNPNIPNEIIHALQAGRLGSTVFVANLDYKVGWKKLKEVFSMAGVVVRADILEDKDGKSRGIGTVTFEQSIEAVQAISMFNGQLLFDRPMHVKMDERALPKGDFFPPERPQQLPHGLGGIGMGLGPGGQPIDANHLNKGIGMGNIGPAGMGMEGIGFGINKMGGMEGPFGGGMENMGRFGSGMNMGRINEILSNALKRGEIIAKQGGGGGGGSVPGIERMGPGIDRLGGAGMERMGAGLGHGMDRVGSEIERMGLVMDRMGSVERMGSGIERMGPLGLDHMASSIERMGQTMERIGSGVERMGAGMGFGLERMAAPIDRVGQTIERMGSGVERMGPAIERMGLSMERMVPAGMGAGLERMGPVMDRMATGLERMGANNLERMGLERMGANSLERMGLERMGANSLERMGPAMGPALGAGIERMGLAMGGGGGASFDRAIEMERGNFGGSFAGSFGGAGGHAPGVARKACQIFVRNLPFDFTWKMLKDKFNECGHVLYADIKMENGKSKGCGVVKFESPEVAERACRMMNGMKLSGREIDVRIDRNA
UniProt Q9NZI8, whole entry: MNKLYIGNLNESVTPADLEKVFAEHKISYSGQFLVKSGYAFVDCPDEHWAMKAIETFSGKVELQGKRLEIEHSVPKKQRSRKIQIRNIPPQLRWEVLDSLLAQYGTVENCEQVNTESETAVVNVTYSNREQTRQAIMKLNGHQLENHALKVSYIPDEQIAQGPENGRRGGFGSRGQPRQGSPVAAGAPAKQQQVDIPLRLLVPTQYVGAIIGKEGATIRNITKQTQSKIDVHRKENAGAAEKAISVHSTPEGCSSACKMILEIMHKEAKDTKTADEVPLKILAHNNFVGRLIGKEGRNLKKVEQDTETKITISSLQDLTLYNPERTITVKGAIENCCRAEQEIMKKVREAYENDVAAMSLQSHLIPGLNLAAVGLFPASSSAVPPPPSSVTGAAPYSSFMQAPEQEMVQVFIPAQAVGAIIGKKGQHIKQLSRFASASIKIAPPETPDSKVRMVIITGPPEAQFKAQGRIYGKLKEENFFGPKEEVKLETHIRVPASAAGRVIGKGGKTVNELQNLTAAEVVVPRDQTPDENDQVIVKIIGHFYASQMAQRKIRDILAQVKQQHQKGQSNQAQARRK
UniProt Q96S16: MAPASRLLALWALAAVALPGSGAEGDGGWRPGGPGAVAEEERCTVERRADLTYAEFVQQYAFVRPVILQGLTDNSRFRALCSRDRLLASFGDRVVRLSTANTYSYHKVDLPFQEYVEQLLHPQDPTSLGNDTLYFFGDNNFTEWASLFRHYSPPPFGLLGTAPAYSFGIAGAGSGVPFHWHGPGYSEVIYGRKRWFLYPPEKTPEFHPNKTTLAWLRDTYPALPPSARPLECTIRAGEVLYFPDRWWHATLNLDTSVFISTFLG
UniProt P11142, whole entry, looked up: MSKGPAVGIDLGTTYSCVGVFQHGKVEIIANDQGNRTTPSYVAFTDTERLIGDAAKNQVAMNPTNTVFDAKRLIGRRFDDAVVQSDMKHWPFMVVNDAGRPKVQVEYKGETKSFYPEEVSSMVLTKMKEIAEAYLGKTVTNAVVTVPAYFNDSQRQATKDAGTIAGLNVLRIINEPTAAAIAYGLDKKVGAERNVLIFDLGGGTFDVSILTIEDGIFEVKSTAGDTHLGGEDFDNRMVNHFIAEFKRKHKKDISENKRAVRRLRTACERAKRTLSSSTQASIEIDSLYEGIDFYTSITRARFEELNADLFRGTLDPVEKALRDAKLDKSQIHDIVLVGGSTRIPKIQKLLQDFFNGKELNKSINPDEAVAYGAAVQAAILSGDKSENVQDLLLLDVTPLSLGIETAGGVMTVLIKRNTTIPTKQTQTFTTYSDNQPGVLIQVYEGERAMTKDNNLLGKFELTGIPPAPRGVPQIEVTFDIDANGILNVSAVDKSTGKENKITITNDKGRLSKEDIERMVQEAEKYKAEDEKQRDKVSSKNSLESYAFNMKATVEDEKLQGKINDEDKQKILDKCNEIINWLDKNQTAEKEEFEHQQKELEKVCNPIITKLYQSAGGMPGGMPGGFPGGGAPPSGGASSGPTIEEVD
UniProt P06213, whole entry: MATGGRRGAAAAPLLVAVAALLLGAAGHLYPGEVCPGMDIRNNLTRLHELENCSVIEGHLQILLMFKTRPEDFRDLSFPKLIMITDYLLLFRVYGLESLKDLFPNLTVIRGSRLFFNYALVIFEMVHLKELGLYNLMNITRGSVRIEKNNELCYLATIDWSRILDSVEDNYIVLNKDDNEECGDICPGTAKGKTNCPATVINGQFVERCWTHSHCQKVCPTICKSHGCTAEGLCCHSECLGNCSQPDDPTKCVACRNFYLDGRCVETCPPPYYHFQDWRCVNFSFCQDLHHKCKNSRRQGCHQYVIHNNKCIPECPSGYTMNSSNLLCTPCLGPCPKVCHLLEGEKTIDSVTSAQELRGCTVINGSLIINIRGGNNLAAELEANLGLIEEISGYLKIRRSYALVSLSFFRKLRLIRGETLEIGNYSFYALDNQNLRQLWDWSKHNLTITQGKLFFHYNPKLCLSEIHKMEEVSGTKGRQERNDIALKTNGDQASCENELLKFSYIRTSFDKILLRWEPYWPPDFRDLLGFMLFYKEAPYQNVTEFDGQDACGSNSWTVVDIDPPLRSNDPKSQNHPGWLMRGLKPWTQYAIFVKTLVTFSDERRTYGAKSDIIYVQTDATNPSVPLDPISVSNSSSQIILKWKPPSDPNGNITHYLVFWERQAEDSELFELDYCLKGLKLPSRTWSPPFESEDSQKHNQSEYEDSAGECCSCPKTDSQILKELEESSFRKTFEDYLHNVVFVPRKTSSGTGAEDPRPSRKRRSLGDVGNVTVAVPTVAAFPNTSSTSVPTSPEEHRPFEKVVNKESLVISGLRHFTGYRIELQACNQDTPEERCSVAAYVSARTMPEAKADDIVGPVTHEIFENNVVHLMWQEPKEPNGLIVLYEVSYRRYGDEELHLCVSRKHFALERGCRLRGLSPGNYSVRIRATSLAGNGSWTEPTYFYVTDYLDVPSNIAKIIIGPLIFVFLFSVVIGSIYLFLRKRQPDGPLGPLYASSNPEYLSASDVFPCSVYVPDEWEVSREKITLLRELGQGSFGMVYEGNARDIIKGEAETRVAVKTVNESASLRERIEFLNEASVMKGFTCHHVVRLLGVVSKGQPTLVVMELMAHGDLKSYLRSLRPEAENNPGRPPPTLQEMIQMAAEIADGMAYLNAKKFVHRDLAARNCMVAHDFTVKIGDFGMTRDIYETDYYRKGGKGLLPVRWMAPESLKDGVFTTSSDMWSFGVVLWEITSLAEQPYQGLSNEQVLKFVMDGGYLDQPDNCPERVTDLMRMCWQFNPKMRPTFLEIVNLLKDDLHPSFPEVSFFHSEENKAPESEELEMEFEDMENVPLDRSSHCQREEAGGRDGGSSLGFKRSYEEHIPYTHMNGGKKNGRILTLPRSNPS
UniProt Q13303: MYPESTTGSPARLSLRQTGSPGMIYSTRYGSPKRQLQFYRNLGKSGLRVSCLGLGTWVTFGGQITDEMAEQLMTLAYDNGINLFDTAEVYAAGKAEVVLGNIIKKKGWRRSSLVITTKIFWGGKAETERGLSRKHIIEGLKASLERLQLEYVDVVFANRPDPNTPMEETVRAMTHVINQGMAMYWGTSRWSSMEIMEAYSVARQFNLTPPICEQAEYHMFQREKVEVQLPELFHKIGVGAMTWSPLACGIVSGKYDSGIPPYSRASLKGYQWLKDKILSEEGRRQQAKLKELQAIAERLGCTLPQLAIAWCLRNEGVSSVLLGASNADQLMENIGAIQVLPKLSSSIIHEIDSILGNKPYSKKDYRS
UniProt Q13576: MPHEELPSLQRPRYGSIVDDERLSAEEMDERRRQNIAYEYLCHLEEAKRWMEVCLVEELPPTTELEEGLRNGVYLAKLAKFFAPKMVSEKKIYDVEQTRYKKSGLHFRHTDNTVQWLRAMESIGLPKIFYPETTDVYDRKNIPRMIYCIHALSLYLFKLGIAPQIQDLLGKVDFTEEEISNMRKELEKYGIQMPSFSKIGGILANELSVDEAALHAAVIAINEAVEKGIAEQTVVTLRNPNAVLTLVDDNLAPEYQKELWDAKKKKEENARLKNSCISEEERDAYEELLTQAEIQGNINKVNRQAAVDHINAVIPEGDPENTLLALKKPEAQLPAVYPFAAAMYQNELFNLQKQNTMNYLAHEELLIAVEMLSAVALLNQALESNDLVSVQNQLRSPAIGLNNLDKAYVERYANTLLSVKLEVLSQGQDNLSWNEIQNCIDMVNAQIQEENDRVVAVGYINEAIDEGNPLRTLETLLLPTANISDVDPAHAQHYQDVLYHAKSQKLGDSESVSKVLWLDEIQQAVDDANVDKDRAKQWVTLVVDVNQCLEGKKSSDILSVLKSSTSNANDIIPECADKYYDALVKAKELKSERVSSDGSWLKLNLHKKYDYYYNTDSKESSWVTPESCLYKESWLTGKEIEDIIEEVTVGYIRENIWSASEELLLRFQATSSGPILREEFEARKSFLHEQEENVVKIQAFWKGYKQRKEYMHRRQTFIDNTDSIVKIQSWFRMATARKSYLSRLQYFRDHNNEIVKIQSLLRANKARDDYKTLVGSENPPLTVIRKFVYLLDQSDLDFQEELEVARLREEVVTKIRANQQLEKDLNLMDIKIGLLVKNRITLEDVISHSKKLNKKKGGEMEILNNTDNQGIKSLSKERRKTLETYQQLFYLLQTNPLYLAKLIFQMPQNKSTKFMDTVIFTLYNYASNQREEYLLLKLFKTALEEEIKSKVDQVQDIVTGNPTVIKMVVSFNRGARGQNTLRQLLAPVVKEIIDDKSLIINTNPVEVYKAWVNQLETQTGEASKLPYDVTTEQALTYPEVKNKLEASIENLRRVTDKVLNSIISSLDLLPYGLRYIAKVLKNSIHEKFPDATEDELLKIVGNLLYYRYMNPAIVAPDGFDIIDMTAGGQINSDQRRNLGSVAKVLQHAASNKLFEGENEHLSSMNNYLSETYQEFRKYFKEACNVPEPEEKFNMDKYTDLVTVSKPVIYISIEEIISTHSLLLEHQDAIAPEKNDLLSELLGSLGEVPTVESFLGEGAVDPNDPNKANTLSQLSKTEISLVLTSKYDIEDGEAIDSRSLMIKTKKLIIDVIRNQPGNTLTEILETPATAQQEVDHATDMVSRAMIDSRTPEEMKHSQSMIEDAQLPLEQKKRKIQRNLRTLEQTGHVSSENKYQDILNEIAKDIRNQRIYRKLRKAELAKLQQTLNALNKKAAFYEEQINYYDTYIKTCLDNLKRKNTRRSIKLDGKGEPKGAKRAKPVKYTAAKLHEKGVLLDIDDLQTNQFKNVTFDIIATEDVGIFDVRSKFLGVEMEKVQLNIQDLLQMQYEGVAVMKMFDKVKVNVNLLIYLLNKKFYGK
UniProt Q16891: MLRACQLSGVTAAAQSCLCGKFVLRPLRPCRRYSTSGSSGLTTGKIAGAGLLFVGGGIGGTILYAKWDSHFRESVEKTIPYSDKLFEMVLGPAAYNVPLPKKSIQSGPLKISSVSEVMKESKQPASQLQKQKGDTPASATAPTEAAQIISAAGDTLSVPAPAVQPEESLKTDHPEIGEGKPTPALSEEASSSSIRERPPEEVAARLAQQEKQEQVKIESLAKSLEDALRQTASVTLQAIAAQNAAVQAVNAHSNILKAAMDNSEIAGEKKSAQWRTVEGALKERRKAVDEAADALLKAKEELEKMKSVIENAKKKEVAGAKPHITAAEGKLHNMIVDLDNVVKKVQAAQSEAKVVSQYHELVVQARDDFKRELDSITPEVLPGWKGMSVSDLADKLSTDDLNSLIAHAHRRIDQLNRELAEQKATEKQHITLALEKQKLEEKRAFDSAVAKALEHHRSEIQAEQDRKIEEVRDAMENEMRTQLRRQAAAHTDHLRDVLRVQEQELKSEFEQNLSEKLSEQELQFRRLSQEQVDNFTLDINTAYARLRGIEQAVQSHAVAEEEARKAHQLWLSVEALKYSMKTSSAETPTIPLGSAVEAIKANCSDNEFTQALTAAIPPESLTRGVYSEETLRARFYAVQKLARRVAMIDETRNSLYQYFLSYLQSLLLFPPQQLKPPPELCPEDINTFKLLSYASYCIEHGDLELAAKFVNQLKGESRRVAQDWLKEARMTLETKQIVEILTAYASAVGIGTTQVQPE

compound: COc1ccc(Cn2ccc3ccc(C(=O)NO)cc32)cc1; assay: dose-dependent thermal stabilisation call (2D-TPP, DLPTP, 10% FDR) (binary (1 = stabilised)); higher = stabilised by the compound; settings: system: HL-60 intact cells; concentration range 0.04-10 µM

Target | dose-dependent thermal stabilisation call
HNRNPM (UniProt P52272) | inactive: 0
HUWE1 (UniProt Q7Z6Z7) | inactive: 0
KEAP1 (UniProt Q14145) | inactive: 0
IGF2BP1 (UniProt Q9NZI8) | inactive: 0
IL18R1 (UniProt Q13478) | inactive: 0
JMJD8 (UniProt Q96S16) | inactive: 0
HSPA8 (UniProt P11142) | active: 1
INSR (UniProt P06213) | inactive: 0
KCNAB2 (UniProt Q13303) | inactive: 0
IQGAP2 (UniProt Q13576) | inactive: 0
IMMT (UniProt Q16891) | inactive: 0

Some of the entries so far, with each value named.
IGF2BP1 (UniProt Q9NZI8)
  dose-dependent thermal stabilisation call: inactive: 0
IL18R1 (UniProt Q13478)
  dose-dependent thermal stabilisation call: inactive: 0
